Results are given in words; binding and its absence hold for the method and conditions named. Some binding calls cover weakened binding; strength is not graded here.

Our source for the binding values is article PMC4669759.

One assay concerns the target GAL4DBD–MCL-1, Q07820. In words: two-hybrid; mammalian two-hybrid in HeLa cells stably expressing a GAL4-luciferase reporter; bait (GAL4DBD) and prey (VP16AD) from one plasmid; A-1210477 for 24 h; luciferase (ONE-Glo), percent of complex remaining relative to untreated controls. As to conditions: remark: other sources report otherwise. On the technique in general: In a reporter assay the amount or activity of a reporter protein is the signal.

The target in the next assay is eGFP-BCL-2, P10415. In words: live-cell redistribution imaging (mCherry-BH3 protein at mitochondria); T-REx-293 cells stably expressing eGFP-anti-apoptotic and mCherry-BH3-only fusion proteins from a bicistronic module; spinning disk confocal imaging; ratio of mitochondrial to cytoplasmic mCherry after ABT-737, A-1210477 or DMSO. As to conditions: remark: other sources report otherwise.

B1: VP16AD–NOXA, Q13794 1-54 (protein)
chain: MPGKKARKNAQPSPARAPAELEVECATQLRRFGDKLNFRQKLLNLISKLFCSGT
As to B1, in the assay with GAL4DBD–MCL-1, Q07820, the binding result is “binds”.

B2: mCherry-BAD, Q92934 1-168 (protein)
chain: MFQIPEFEPSEQEDSSSAERGLGPSPAGDGPSGSGKHHRQAPGLLWDASHQQEQPTSSSHHGGAGAVEIRSRHSSYPAGTEDDEGMGEEPSPFRGRSRSAPPNLWAAQRYGRELRRMSDEFVDSFKKGLPRPKSAGTATQMRQSSSWTRVFQSWWDRNLGRGSSAPSQ
For the molecule B2, the binding entry in the assay with eGFP-BCL-2, P10415 is recorded as “binds”.
